Laboratory results as given in the supplement of paper PMC10849652.
Some of the results follow.

Sequences of proteins named here, by UniProt entry; tags and fusion partners are left off. A change or cut given only in a name is not applied to a line headed by its entry.
UniProt O15182: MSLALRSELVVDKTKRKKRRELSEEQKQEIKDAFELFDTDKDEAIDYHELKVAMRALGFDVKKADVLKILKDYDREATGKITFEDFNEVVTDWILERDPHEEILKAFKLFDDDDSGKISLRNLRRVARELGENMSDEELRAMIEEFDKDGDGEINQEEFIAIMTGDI
UniProt O14519: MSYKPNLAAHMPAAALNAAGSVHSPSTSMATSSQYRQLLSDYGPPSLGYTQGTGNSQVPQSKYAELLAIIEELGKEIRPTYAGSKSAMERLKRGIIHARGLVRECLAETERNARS
UniProt P60953, whole entry, looked up: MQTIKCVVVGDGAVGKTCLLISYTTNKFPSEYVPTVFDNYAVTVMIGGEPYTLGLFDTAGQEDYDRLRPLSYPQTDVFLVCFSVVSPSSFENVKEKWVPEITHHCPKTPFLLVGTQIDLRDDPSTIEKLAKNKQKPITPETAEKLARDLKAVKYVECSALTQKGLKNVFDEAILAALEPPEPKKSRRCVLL
UniProt Q8TCZ2: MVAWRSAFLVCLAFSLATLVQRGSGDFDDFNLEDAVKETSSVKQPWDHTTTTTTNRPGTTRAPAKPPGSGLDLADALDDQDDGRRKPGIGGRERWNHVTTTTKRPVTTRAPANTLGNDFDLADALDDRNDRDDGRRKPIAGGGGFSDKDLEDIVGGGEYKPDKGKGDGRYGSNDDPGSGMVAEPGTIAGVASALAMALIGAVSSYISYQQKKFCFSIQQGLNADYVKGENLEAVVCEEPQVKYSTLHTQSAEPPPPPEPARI
UniProt Q9BYV8: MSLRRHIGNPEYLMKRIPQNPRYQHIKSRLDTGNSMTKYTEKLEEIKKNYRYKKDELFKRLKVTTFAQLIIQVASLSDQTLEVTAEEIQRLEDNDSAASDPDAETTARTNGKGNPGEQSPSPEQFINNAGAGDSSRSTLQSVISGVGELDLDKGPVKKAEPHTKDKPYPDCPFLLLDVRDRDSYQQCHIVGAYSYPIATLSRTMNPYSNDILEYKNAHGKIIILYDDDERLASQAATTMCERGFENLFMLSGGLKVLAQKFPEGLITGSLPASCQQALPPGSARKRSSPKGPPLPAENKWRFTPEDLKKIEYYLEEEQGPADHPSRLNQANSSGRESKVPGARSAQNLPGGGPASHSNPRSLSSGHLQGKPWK
UniProt Q9Y6A4: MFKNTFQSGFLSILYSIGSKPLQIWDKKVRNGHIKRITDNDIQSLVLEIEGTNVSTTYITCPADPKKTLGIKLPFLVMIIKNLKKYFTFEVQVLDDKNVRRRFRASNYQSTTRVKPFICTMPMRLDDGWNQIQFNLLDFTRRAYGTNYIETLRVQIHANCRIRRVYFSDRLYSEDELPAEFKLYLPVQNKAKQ
UniProt P57076: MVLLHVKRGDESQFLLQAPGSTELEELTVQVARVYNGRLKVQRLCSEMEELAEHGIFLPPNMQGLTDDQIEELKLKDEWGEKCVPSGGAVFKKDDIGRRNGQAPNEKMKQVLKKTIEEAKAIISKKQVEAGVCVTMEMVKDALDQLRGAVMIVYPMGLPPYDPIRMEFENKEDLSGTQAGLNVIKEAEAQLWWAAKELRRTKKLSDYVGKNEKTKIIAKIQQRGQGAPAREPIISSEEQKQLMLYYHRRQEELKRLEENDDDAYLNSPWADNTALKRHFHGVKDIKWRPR
UniProt O75956: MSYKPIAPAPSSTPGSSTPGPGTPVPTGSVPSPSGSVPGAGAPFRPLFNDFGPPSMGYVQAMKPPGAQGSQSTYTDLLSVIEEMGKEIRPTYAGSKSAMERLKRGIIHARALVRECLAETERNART
UniProt O00311: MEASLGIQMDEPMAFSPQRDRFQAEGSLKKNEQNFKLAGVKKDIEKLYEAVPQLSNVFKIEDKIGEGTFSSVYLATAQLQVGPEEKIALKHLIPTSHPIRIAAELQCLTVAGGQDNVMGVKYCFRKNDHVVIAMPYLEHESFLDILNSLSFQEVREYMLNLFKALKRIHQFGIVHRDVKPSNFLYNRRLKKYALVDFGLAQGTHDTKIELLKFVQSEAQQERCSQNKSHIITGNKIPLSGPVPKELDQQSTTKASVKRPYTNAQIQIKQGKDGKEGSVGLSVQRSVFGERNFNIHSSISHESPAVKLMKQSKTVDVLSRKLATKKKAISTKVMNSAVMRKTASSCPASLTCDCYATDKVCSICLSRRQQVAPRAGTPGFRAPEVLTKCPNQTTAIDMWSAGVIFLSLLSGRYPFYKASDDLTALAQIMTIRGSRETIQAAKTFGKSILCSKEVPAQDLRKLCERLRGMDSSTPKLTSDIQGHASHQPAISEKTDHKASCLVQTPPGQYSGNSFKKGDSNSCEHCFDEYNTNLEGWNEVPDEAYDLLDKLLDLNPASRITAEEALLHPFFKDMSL
UniProt Q8IW35: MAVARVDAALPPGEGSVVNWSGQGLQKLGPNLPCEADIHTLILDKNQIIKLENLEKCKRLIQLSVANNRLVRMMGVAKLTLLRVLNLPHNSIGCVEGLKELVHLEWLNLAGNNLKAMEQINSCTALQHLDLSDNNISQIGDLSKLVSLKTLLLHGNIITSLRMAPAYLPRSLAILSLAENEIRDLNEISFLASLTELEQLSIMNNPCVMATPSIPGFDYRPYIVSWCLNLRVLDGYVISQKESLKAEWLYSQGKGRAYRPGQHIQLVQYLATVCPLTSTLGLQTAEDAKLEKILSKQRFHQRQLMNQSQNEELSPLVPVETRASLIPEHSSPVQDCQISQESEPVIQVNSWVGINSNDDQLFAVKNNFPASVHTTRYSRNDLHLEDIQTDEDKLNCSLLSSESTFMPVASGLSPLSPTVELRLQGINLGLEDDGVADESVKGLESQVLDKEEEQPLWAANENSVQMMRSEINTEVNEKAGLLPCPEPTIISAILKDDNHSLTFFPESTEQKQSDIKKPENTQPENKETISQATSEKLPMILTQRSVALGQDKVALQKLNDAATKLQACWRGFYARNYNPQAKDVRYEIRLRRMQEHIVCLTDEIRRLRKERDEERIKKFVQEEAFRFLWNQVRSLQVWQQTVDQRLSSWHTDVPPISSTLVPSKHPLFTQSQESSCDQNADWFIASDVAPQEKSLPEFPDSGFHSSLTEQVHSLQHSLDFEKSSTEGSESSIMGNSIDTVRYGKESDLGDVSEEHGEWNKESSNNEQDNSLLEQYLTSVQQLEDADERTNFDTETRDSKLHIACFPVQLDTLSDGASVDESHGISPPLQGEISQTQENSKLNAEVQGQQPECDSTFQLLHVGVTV
UniProt P49427: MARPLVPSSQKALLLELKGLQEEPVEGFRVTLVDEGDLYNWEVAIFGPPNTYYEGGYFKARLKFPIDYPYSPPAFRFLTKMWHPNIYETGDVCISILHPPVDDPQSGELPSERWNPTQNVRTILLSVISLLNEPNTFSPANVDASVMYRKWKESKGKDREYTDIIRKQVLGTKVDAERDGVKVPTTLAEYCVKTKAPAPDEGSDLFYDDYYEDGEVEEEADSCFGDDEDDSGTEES
UniProt Q8N2Z9: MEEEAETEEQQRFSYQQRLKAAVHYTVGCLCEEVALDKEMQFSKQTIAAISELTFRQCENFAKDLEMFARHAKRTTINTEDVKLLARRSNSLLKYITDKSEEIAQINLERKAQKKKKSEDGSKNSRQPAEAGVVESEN
UniProt Q5VV42: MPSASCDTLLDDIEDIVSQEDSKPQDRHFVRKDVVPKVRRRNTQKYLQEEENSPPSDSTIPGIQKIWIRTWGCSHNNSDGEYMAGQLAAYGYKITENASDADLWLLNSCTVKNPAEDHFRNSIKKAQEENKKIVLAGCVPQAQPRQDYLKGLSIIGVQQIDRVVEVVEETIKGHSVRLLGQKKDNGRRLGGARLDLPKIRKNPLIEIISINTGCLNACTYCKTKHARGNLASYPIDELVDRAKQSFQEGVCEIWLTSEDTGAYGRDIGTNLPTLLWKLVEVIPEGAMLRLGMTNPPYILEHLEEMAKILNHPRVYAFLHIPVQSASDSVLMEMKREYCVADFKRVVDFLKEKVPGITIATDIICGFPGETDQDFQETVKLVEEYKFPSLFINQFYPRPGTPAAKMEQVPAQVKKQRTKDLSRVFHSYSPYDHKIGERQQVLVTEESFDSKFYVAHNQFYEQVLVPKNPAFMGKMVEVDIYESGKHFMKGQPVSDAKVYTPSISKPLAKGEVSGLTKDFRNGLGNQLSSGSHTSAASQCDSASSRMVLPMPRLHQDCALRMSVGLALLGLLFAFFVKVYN
UniProt Q9Y281, whole entry, looked up: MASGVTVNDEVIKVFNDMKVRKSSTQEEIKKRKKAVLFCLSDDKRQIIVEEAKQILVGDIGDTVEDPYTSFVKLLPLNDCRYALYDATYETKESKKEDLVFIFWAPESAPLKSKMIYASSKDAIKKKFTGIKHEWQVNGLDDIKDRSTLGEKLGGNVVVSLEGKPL
UniProt P46527, whole entry, looked up: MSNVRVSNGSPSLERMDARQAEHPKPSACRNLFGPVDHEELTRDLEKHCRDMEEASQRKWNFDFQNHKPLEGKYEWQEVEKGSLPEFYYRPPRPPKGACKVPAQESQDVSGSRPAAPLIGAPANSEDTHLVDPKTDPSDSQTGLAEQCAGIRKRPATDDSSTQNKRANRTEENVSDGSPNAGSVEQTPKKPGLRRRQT
UniProt Q96SN8: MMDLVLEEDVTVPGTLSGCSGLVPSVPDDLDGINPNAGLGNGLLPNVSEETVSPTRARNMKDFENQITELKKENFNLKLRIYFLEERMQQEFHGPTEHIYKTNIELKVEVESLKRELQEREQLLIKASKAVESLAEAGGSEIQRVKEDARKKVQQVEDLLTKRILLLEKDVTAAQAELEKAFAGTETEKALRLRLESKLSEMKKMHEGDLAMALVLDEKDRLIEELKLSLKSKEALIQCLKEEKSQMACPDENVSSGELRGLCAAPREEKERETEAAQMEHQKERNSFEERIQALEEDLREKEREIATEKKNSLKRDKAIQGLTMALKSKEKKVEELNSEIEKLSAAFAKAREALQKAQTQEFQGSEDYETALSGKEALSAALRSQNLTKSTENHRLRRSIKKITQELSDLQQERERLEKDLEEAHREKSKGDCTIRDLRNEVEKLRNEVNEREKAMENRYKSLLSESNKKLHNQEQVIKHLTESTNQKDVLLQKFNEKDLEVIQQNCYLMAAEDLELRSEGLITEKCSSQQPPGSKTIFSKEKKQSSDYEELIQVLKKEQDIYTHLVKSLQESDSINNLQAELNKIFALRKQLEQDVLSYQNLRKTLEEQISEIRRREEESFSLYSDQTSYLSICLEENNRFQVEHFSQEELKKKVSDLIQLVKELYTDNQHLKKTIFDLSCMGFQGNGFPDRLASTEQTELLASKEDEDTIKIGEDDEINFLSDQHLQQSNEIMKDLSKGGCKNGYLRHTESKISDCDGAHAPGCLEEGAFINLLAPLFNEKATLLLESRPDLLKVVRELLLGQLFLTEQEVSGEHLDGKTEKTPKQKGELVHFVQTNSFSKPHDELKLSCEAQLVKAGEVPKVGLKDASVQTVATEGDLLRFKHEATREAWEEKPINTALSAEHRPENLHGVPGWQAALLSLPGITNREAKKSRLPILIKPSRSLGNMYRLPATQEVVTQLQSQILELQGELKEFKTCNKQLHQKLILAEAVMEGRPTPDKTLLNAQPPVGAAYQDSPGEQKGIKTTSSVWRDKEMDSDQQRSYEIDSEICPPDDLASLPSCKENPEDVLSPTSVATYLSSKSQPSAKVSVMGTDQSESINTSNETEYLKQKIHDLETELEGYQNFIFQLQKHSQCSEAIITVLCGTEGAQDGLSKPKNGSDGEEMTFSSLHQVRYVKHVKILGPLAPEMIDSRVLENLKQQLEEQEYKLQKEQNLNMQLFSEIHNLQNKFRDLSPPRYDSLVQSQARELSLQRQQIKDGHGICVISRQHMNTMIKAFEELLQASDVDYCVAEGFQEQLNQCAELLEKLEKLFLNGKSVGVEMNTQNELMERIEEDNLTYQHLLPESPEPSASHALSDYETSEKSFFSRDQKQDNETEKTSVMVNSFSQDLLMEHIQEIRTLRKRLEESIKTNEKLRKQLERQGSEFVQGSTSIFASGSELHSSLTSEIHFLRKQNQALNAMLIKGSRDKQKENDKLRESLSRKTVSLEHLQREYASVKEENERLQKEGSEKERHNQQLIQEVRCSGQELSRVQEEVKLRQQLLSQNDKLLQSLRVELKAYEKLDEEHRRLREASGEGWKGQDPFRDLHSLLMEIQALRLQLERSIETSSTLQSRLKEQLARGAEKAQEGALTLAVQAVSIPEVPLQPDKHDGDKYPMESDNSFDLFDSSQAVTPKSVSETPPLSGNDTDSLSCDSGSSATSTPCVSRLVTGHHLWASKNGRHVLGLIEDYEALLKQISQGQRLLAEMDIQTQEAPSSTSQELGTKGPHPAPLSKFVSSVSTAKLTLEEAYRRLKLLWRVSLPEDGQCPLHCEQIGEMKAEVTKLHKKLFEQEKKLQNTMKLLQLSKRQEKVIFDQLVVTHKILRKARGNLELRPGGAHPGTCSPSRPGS

Legend:
Assay in all cases: log2 fold change, soluble protein after heating vs DMSO (PISA); higher = thermal stabilisation; K562 lysate, 10 uM; active = over 0.2 and 3.5 SD of the protein, either way, in both replicates (recomputed)
[1] = compound: NCC(=O)Nc1ccc(-n2nc(C(F)(F)F)cc2-c2ccc3c(ccc4ccccc43)c2)cc1
Procedure, shortened: (§1)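 Following dounce homogenisation of K562 pellets in PBS pH 7.4 with 1 mM MgCl2, crude extract at 1 mg/mL protein was incubated for 30 min with 10 μM compound. Aliquots were then heated for 3 min over 48°C-58°C and pooled, NP-40 was added to 0.5% at 4°C, and soluble protein was recovered as the supernatant at 21,000xg for 90 min. Channel-sum-equalised TMTpro 16plex LC-MS/MS quantified this protein. Each value, from duplicates, is a log-two fold change in thermal stability relative to solvent controls.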

vorinostat = compound: O=C(CCCCCCC(=O)Nc1ccccc1)NO [vorinostat]
Procedure, shortened: as §1

silmitasertib = compound: O=C(O)c1ccc2c(c1)nc(Nc1cccc(Cl)c1)c1ccncc12 [silmitasertib]
Procedure, shortened: as §1

[2] = compound: O=C1NC(=O)C(c2cnc3ccccn23)=C1c1cn2c3c(cc(F)cc13)CN(C(=O)N1CCCCC1)CC2
Procedure, shortened: as §1

entospletinib = compound: c1cn2cc(-c3ccc4cn[nH]c4c3)nc(Nc3ccc(N4CCOCC4)cc3)c2n1 [entospletinib]
Procedure, shortened: as §1

| Target | log2 fold change [1] | log2 fold change (vorinostat) | log2 fold change (silmitasertib) | log2 fold change [2] | log2 fold change (entospletinib) |
| --- | --- | --- | --- | --- | --- |
| CETN3 (UniProt O15182) | inactive: 0.029 | inactive: -0.022 | inactive: 0.041 | inactive: -0.183 | inactive: -0.048 |
| CDK2AP1 (UniProt O14519) | inactive: -0.012 | inactive: 0.087 | inactive: -0.043 | inactive: -0.023 | inactive: 0.083 |
| CDC42 isoform 1 (UniProt P60953) | inactive: 0.029 | inactive: 0.076 | inactive: 0.006 | inactive: -0.068 | inactive: -0.031 |
| CD99L2 isoform 5 (UniProt Q8TCZ2) | inactive: 0.232 | inactive: 0.166 | inactive: 0.003 | inactive: -0.018 | – |
| CEP41 (UniProt Q9BYV8) | inactive: 0.002 | active: -0.558 | inactive: -0.026 | inactive: -0.152 | inactive: -0.017 |
| CFAP20 (UniProt Q9Y6A4) | inactive: -0.031 | inactive: 0.074 | inactive: -0.006 | inactive: 0.006 | inactive: 0.019 |
| CFAP298 (UniProt P57076) | inactive: -0.014 | inactive: -0.126 | inactive: 0.028 | inactive: -0.009 | inactive: 0.012 |
| CEP76 (UniProt Q8TAP6) | inactive: -0.1 | inactive: -0.055 | inactive: 0.027 | inactive: -0.051 | inactive: 0.039 |
| CDK2AP2 (UniProt O75956) | inactive: 0.011 | inactive: 0.085 | inactive: -0.013 | inactive: -0.088 | – |
| CDC7 (UniProt O00311) | inactive: 0.086 | inactive: -0.152 | inactive: -0.077 | inactive: -0.01 | inactive: 0.007 |
| CD82 (UniProt P27701) | inactive: 0.169 | inactive: 0.27 | inactive: 0.097 | – | – |
| CEP85L isoform 4 (UniProt Q5SZL2) | inactive: 0.025 | inactive: -0.112 | inactive: 0.017 | inactive: -0.016 | – |
| CDK5RAP1 (UniProt Q96SZ6) | inactive: 0.011 | inactive: 0.036 | inactive: -0.07 | inactive: 0.016 | inactive: 0.029 |
| CEP97 (UniProt Q8IW35) | inactive: -0.056 | inactive: -0.135 | inactive: 0.021 | inactive: 0.007 | inactive: 0 |
| CDC34 (UniProt P49427) | inactive: 0.017 | inactive: 0.01 | inactive: -0.047 | inactive: 0.009 | inactive: -0.02 |
| CENPS (UniProt Q8N2Z9) | inactive: 0.059 | inactive: 0.019 | inactive: 0.054 | inactive: -0.001 | inactive: 0.021 |
| CDKAL1 (UniProt Q5VV42) | inactive: 0.038 | inactive: 0.101 | inactive: -0.02 | inactive: -0.007 | inactive: -0.013 |
| CFL2 (UniProt Q9Y281) | inactive: 0.052 | inactive: 0.089 | inactive: -0.014 | inactive: -0.048 | inactive: -0.029 |
| CDC42BPB (UniProt Q9Y5S2) | inactive: 0.025 | inactive: -0.125 | inactive: 0.044 | inactive: 0.1 | inactive: 0.044 |
| CDAN1 (UniProt Q8IWY9) | inactive: 0.019 | active: -0.326 | inactive: 0.05 | inactive: 0.056 | inactive: -0.006 |
| CDK12 (UniProt Q9NYV4) | inactive: 0.041 | inactive: -0.065 | inactive: -0.04 | inactive: 0.098 | inactive: -0.04 |
| CDK13 (UniProt Q14004) | inactive: -0.089 | inactive: -0.088 | inactive: 0.093 | inactive: -0.012 | inactive: -0.013 |
| CDKN1B (UniProt P46527) | inactive: 0.062 | inactive: -0.011 | inactive: 0.048 | inactive: -0.067 | inactive: -0.028 |
| CDK5RAP2 (UniProt Q96SN8) | inactive: 0.042 | inactive: -0.156 | inactive: 0 | inactive: 0.026 | inactive: -0.042 |
| CDC20 (UniProt Q12834) | inactive: 0.067 | inactive: -0.178 | inactive: 0.049 | inactive: -0.028 | inactive: 0.004 |

A stretch from further up:

| Target | log2 fold change [1] | log2 fold change (vorinostat) | log2 fold change (silmitasertib) | log2 fold change [2] | log2 fold change (entospletinib) |
| --- | --- | --- | --- | --- | --- |
| CEP85L isoform 4 (UniProt Q5SZL2) | inactive: 0.025 | inactive: -0.112 | inactive: 0.017 | inactive: -0.016 | – |
| CDK5RAP1 (UniProt Q96SZ6) | inactive: 0.011 | inactive: 0.036 | inactive: -0.07 | inactive: 0.016 | inactive: 0.029 |
